PubChem BioAssay AID1259405 | NCATS | 2018

Screen: 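Knock-downs that lift recombinant protein yield in hamster ovary cells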 (primary screen)
System: Chinese hamster CHO-K1 ovary cells with stable secreted eGFP expression
Knock-down reagent: single siRNA against mouse genes, 0.8 pmol siRNA per well (2 µl of 400 nM stock)
Timing: 3 days
Read-out: 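Per-well intracellular GFP measured by laser scanning cytometry, plus viability from ATP luminescence, each relative to plate median of non-targeting control wells, in %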
Direction: GFP, % of control: higher = more GFP per well, higher productivity; viability (ATP), % of control: higher = more viable cells (more ATP)
Hit rule: 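Called active when intracellular GFP, relative to negative control, is at or above 120%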
The whole screen tested about 50,000 reagents; below is a random part of them. About 4,000 of them (8%) count as active. 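Mouse siRNA library applied to hamster cells; one well for each siRNA.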 The numbers tell different reagents against one gene apart.

The first 4 entries, to show the layout:
Tekt3 (GeneID 71062) #1 → GFP, % of control: 77.3; viability (ATP), % of control: 96.5; Call: inactive
Tekt3 (GeneID 71062) #2 → GFP, % of control: 83.2; viability (ATP), % of control: 91.7; Call: inactive
Gkap1 (GeneID 56278) #1 → GFP, % of control: 117; viability (ATP), % of control: 80.4; Call: inactive
Gkap1 (GeneID 56278) #2 → GFP, % of control: 112; viability (ATP), % of control: 76.2; Call: inactive

The list itself, from the start:
Tekt3 (GeneID 71062) #1 → GFP, % of control: 77.3; viability (ATP), % of control: 96.5; Call: inactive
Tekt3 (GeneID 71062) #2 → GFP, % of control: 83.2; viability (ATP), % of control: 91.7; Call: inactive
Gkap1 (GeneID 56278) #1 → GFP, % of control: 117; viability (ATP), % of control: 80.4; Call: inactive
Gkap1 (GeneID 56278) #2 → GFP, % of control: 112; viability (ATP), % of control: 76.2; Call: inactive
Fgf18 (GeneID 14172) #1 → GFP, % of control: 81.4; viability (ATP), % of control: 58; Call: inactive
Fgf18 (GeneID 14172) #2 → GFP, % of control: 19.5; viability (ATP), % of control: 24.3; Call: inactive
Fgf18 (GeneID 14172) #3 → GFP, % of control: 78.3; viability (ATP), % of control: 47.3; Call: inactive
Itga3 (GeneID 16400) #1 → GFP, % of control: 85.2; viability (ATP), % of control: 62.7; Call: inactive
Itga3 (GeneID 16400) #2 → GFP, % of control: 93.2; viability (ATP), % of control: 69.6; Call: inactive
Itga3 (GeneID 16400) #3 → GFP, % of control: 98.4; viability (ATP), % of control: 94.8; Call: inactive
Slc25a47 (GeneID 104910) #1 → GFP, % of control: 82.9; viability (ATP), % of control: 91.5; Call: inactive
Slc25a47 (GeneID 104910) #2 → GFP, % of control: 107; viability (ATP), % of control: 92.3; Call: inactive
Slc25a47 (GeneID 104910) #3 → GFP, % of control: 135; viability (ATP), % of control: 79; Call: active
Taf8 (GeneID 63856) #1 → GFP, % of control: 62.8; viability (ATP), % of control: 74.4; Call: inactive
Taf8 (GeneID 63856) #2 → GFP, % of control: 85.8; viability (ATP), % of control: 133; Call: inactive
Taf8 (GeneID 63856) #3 → GFP, % of control: 90.4; viability (ATP), % of control: 101; Call: inactive
Fas (GeneID 14102) #1 → GFP, % of control: 110; viability (ATP), % of control: 109; Call: inactive
Fas (GeneID 14102) #2 → GFP, % of control: 89.9; viability (ATP), % of control: 84.5; Call: inactive
Fas (GeneID 14102) #3 → GFP, % of control: 57; viability (ATP), % of control: 58.4; Call: inactive
Lca5 (GeneID 75782) #1 → GFP, % of control: 88; viability (ATP), % of control: 101; Call: inactive
Lca5 (GeneID 75782) #2 → GFP, % of control: 107; viability (ATP), % of control: 68.4; Call: inactive
Lca5 (GeneID 75782) #3 → GFP, % of control: 101; viability (ATP), % of control: 91.3; Call: inactive
Rraga (GeneID 68441) #1 → GFP, % of control: 42.5; viability (ATP), % of control: 73.2; Call: inactive
Rraga (GeneID 68441) #2 → GFP, % of control: 74.7; viability (ATP), % of control: 82.6; Call: inactive
Rraga (GeneID 68441) #3 → GFP, % of control: 90.3; viability (ATP), % of control: 83; Call: inactive
Ost4 (GeneID 67695) #1 → GFP, % of control: 44.4; viability (ATP), % of control: 20.9; Call: inactive
Ost4 (GeneID 67695) #2 → GFP, % of control: 34.5; viability (ATP), % of control: 40.2; Call: inactive
Ost4 (GeneID 67695) #3 → GFP, % of control: 87.5; viability (ATP), % of control: 83.1; Call: inactive
Dab1 (GeneID 13131) #1 → GFP, % of control: 57; viability (ATP), % of control: 92.2; Call: inactive
Dab1 (GeneID 13131) #2 → GFP, % of control: 56.3; viability (ATP), % of control: 68.2; Call: inactive
Peak1 (GeneID 244895) #1 → GFP, % of control: 111; viability (ATP), % of control: 69.1; Call: inactive
Peak1 (GeneID 244895) #2 → GFP, % of control: 77.8; viability (ATP), % of control: 92.8; Call: inactive
Peak1 (GeneID 244895) #3 → GFP, % of control: 49.8; viability (ATP), % of control: 66.7; Call: inactive
Art1 (GeneID 11870) #1 → GFP, % of control: 148; viability (ATP), % of control: 72.9; Call: active
Art1 (GeneID 11870) #2 → GFP, % of control: 46.7; viability (ATP), % of control: 45.2; Call: inactive
Art1 (GeneID 11870) #3 → GFP, % of control: 104; viability (ATP), % of control: 60.9; Call: inactive
Myef2 (GeneID 17876) #1 → GFP, % of control: 77.5; viability (ATP), % of control: 99.8; Call: inactive
Myef2 (GeneID 17876) #2 → GFP, % of control: 73.9; viability (ATP), % of control: 87.8; Call: inactive
Myef2 (GeneID 17876) #3 → GFP, % of control: 70.6; viability (ATP), % of control: 71.3; Call: inactive
Homez (GeneID 239099) #1 → GFP, % of control: 80.6; viability (ATP), % of control: 84.4; Call: inactive
Homez (GeneID 239099) #2 → GFP, % of control: 80; viability (ATP), % of control: 78.9; Call: inactive
Homez (GeneID 239099) #3 → GFP, % of control: 92.2; viability (ATP), % of control: 101; Call: inactive
